Results: PubChem BioAssay AID1439 (NMMLSC, 2008)
Out of some 220,000 compounds screened, about 770 (0.35%) were called active. Inconclusive results, whose numbers are uncertain, are shown with a selection of clear calls. Cut-off read from the data, not from the text of the source: active = binding response below about 49% or above about 150%; inconclusive = no clear call, values can overlap the other calls; inactive = in between.

The chains behind the UniProt entries cited, without tags or fusion partners.
UniProt P09471, whole entry, looked up: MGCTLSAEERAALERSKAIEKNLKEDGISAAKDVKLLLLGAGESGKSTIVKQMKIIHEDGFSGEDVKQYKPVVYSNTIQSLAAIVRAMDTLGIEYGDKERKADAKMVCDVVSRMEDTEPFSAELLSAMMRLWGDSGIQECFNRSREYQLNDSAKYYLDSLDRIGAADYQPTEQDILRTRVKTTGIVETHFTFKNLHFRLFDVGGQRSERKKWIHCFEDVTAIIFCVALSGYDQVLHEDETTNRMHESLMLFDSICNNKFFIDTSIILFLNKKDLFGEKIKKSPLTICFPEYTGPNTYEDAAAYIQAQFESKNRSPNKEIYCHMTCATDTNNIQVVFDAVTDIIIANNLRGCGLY

molecular target: Guanine nucleotide-binding protein G(o) subunit alpha (Homo sapiens) (UniProt P09471); experiment: RGS7-Galphao binding modulators, primary screen, biochemical, multiplexed bead flow cytometry (AID 1439); details: at 10 µM, actives lie on both sides;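 note: fluorescent Galphao held in activated GDP-AlF4 state binding bead-coupled RGS7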

SMILES | binding response (% of control)
COc1ccc(C(CC(=O)N2CCOCC2)c2c(OC)cc(OC)c3ccc(=O)oc23)cc1 (stereo not drawn) | inconclusive: 116%
O=C(CCNC(=O)c1ccco1)Nc1cccc(Br)c1 | inconclusive: 99.1%
Cc1ccc([N+](=O)[O-])cc1N(CC(=O)NC1CCCC1)S(C)(=O)=O | inconclusive: 94%
O=C(COC(=O)CC1CC2CCC1C2)Nc1ccc(F)cc1 (stereo not drawn) | inconclusive: 110%
CCCSc1nc2cc(C)c(C)cc2n1CC(O)CO (stereo not drawn) | inconclusive: 91.9%
CC(C)CCOP(=O)(c1ccc(N(C)C)cc1)C(Nc1ccccc1)c1ccc(N(C)C)cc1 (stereo not drawn) | inconclusive: 49.4%
CCO[C@@H]1OC(C(=O)N2CCCCCCC2)=C[C@H](c2ccc3c(c2)OCO3)[C@H]1CCCO | inactive: 111%
COc1cc(C(=O)Nc2nnc(C(F)(F)F)s2)c([N+](=O)[O-])cc1OC | inconclusive: 128%
COCCNC(=O)c1cn(C(C)c2ccccc2F)nn1 (stereo not drawn) | inconclusive: 108%
CSc1nc2ncc(C(=O)O)c(N)n2n1 | inactive: 101%
NS(=O)(=O)c1ccc(NC(=O)CN2CCN(S(=O)(=O)/C=C/c3ccccc3)CC2)cc1 | inconclusive: 103%
Fc1cccc(CCN2C(=S)NC[C@@H]2CC2CCCCC2)c1 | inconclusive: 112%
N#CCC(=O)N/N=C/c1cn(Cc2cccc3ccccc23)c2ccccc12 | inconclusive: -68.1%
CCOC(=O)CN1C(=N)N(c2nc(NC(C)C)nc(OC)n2)CC1=O | inconclusive: 141%
Cc1c(NC(=O)C(C)N2C(=O)C3CCCCC3C2=O)c(=O)n(-c2ccccc2)n1C (stereo not drawn) | inactive: 105%
OCCC1CN(Cc2cccn2-c2nccs2)CCN1C1CCCCC1 (stereo not drawn) | inactive: 94%
c1ccc(-c2cn(-c3ccccc3)c3[n+]2CCCS3)cc1 | inconclusive: 127%
ONC(=Nc1ccccc1Cl)c1ccccc1Cl | inconclusive: 104%
CCOC(=O)C1=C(C)NC2=C(C(=O)c3ccccc32)C1c1ccc([N+](=O)[O-])o1 (stereo not drawn) | inconclusive: -177%
CC1=C(C(=O)Nc2ccc(C)cn2)C(c2cnn(C)c2)C2=C(CCCC2=O)N1 (stereo not drawn) | inactive: 100%

SMILES | binding response (% of control)
N#Cc1ccc(OCc2nnc(-c3ccc([N+](=O)[O-])cc3)o2)cc1 | inconclusive: 107%
Cc1ccnc(NS(=O)(=O)c2ccc(NC(=O)/C=C/c3ccccc3)cc2)n1 | inconclusive: 101%
CC(=O)Nc1ccc2c(CSc3nnc(N)s3)cc(=O)oc2c1 | inconclusive: 102%
N/C(CCS(=O)(=O)c1ccc(Cl)cc1)=N\OC(=O)c1ccccc1C(F)(F)F | inconclusive: 89.9%
CC1CCCCN1CCn1c(=S)[nH]c2cc3c(cc2c1=O)OCO3 (stereo not drawn) | inactive: 101%
C/C(=N\NC(=S)NCc1ccccc1)c1ccc(Cl)s1 | inconclusive: 110%
NC1=NC(=Nc2cccc(S(=O)(=O)N3CCOCC3)c2)c2ccccc21 | inconclusive: 95.3%
COc1cc(CCCN2C(=O)C(=O)NC[C@@H]2c2ccccc2)cc(OC)c1OC | inconclusive: 112%
c1ccc(Nc2nnc(-c3cccc4ccccc34)o2)cc1 | inconclusive: -13.6%
NNC(=O)c1ccc(COc2ccc3ccccc3c2)o1 | inconclusive: 294%
CC(=O)n1cc(N(C(=O)CCl)c2ccc([N+](=O)[O-])cc2)c2ccccc21 | inconclusive: -221%
Cn1nc(C(F)(F)F)c(-c2ccccc2)c1NC(=O)c1cccnc1 | inconclusive: 114%
COc1cccc(/C=N/n2nnnc2N)c1 | inconclusive: 96%
Cc1nc2ccccc2c(=O)n1/N=C/c1ccccc1O | inconclusive: 107%
CC(C)c1ccc(Nc2nc(Cl)nc(NCc3ccco3)n2)cc1 | inconclusive: 117%
N#Cc1c(N2CCCCC2)nc(N)c2c(N)nc(SCC(=O)O)cc12 | inconclusive: 28%
CCOC(=O)Nc1cc(NC(=O)OCC)c(C)nc1C | inconclusive: 18.3%
N/C(COc1ccc(Cl)cc1Cl)=N\O | inconclusive: 62.5%
O=C(Nc1ccc(Cl)cc1)c1ccc(Br)cc1F | inconclusive: 85.9%
O=C(CSc1nnc(-c2ccncc2)o1)c1cccc([N+](=O)[O-])c1 | inconclusive: 102%

SMILES | binding response (% of control)
Nc1ccccc1C(=O)NNC(=O)C(=O)/C=C(\O)c1ccccc1 | inconclusive: 106%
CSC1=NSC2=NC(=O)/C(=C/c3coc4ccccc4c3=O)C(=N)N12 | active: 174% [activator]
CCc1ccc(NC(=O)CSc2nc3[nH]ncc3c(=O)[nH]2)cc1 | inconclusive: 93.2%
CCn1cc(C(=O)NCC(C)C)c(=O)c2cc(F)c(N3CCN(C)CC3)cc21 | inconclusive: 114%
Cn1cccc1CC(=O)N/N=C/c1ccc([N+](=O)[O-])cc1 | inconclusive: 735%
CCOc1ncccc1C(=O)Nc1nc(SC)ns1 | inconclusive: 112%
CCNc1nc(Oc2ccc(C(=O)OC)cc2)nc(N2CCOCC2)n1 | inconclusive: 45%
CN(C)CCNC(=O)c1onc(CSc2ccc(F)c(F)c2)c1C(=O)NCCN(C)C | inconclusive: 99.6%
Nc1nc(CN2CCN(c3ccccc3F)CC2)nc(N2CCCc3ccccc32)n1 | inconclusive: 92.5%
S=C(Nc1ccc(Cl)cc1)NC1CC2CCCC(C1)N2C1CCCC1 (stereo not drawn) | inactive: 99%
CCOc1ccc(-c2c(=O)n(OCc3ccccc3Br)c3ccccc3[n+]2[O-])c(OCC)c1 | inconclusive: 93.4%
CC(=O)NNC(=S)Nc1cccc(F)c1 | inconclusive: 171%
CCOC(=O)c1[nH]c(C)c(C(=O)Nc2ccc(F)cc2)c1C | inactive: 95.6%
O=C(O)CCNc1cc2ccccc2cc1C(=O)O | inactive: 102%
C/C(=N\OCC(=O)O)c1ccc(Cl)cc1 | inconclusive: 54.6%
O=c1c2ccccc2c(/C=N/c2n[nH]c(CCCO)n2)c(O)n1-c1ccccc1Cl | inactive: 98.1%
O=[N+]([O-])c1ccc(C2=NN(CCO)C(=Nc3ccc(OC(F)(F)F)cc3)SC2)cc1 | inconclusive: 24.6%
CC(C(=O)N1CCCCC1)N(C)CC(=O)Nc1ccc(Cl)cc1 (stereo not drawn) | inconclusive: 90.7%

Part of the list above in order of SMILES length, low to high.
SMILES | binding response (% of control)
C/C(=N\OCC(=O)O)c1ccc(Cl)cc1 | inconclusive: 54.6%
CC(C(=O)N1CCCCC1)N(C)CC(=O)Nc1ccc(Cl)cc1 (stereo not drawn) | inconclusive: 90.7%
CCc1ccc(NC(=O)CSc2nc3[nH]ncc3c(=O)[nH]2)cc1 | inconclusive: 93.2%
